# The list shows a part of the results. These are further read-outs of the screen, such as a control signal, another cell line or another target. No call is given for them. Compounds called inactive in the main read-out are mostly missing here. Words in brackets tell the shape of the fitted curve; partial curves, single points and poor fits give uncertain potencies.
# Experiment: IkB Signaling
# Settings: ABC-DLBCL IkBa-CBG/CBR dual luciferase ratio (green luciferase fused to IkBa over red control in OCI-Ly3 lymphoma cells), 4 h
# How it was run: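 Luminescence ratio of IκBα-fused green versus native red beetle luciferase in OCI-Ly3 cells, 4 h post-doxycycline with compound; red signal alone, scaled from basal (0%) to zero light (-100%), flagged nonspecific or cytotoxic effects.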
# [1] = measured here: control luc red channel unless noted
# [2] = measured here: IkB-luc green channel
# [3] = measured here: control luc red channel
smiles,measurement,setting,value
CCCCc1ccc(NC(=O)c2cc3c(=O)n4ccccc4nc3s2)cc1,AC50,[1],"25.1 µM [rising, partial curve, poor fit]"
Cc1c(C)c2ccc(OCc3ccc(C(=O)O)o3)c(C)c2oc1=O,AC50,[1],"1.26 µM [falling, full curve]"
CCOc1ccc(NC(=O)CSc2nc3c(oc4ccccc43)c(=O)n2-c2ccccc2C)cc1,AC50,[1],"31.6 µM [falling, single point]"
COC(=O)c1ccc2c(=O)[nH]c(CN3c4ccccc4CC3C)nc2c1 (configuration not stated),AC50,[1],"25.1 µM [falling, single point]"
CCn1ccc2cc(S(=O)(=O)N3CCCN(C(=O)Nc4cccc(Cl)c4)CC3)ccc21,AC50,[1],"39.8 µM [rising, single point]"
COc1ccc(N(C)C(=O)c2cn(C3CCCCC3)c(=O)c3c2c2ccccc2n3C)cc1,AC50,[1],"15.8 µM [falling, partial curve]"
O=C(NCCc1csc2nc(-c3ccccc3F)nn12)c1ccco1,AC50,[1],"5.01 µM [falling, single point]"
CN1C(C(=O)c2ccccc2)=C(OC(=O)c2ccc(Br)cc2)c2ccccc2S1(=O)=O,AC50,[1],"25.1 µM [falling, partial curve]"
Cc1oc2c(c(C)cc3oc(=O)c(CC(=O)NCCc4ccccc4)c(C)c32)c1C,AC50,[1],"3.16 µM [rising, partial curve, poor fit]"
COc1ccccc1NC(=O)c1c(NCc2ccc(OC)c(OC)c2OC)sc2c1CCCC2,AC50,[1],"25.1 µM [falling, single point]"
CCOC(=O)c1ccc(Nc2nc3ccccc3nc2NS(=O)(=O)c2ccc(Cl)cc2)cc1,AC50,[1],"1 µM [falling, full curve]"
Cc1ccc(-c2c(CN3CCN(c4cccc(C(F)(F)F)c4)CC3)csc2C)cc1,AC50,[1],"1.26 µM [falling, partial curve]"
Cc1nc2c(C(=O)NCc3ccccc3)c[nH]n2c(=O)c1Cc1ccccc1Cl,AC50,[1],"12.6 µM [falling, partial curve]"
Cc1sc2ncn(CC(=O)N(C)c3ccc(Br)cc3)c(=O)c2c1S(=O)(=O)N1CCC(C)CC1,AC50,[1],"10 µM [falling, partial curve]"
Cc1cccc(NC(=O)c2c(C)oc3ncn(CC(C)C)c(=O)c23)n1,AC50,[1],"0.398 µM [rising, full curve]"
COc1cccc(NC(=O)Nc2cccc(-c3cn4cccnc4n3)c2)c1,AC50,[1],"20 µM [falling, partial curve]"
COc1ccc(NC(=O)c2noc3c2CCCC3)cc1Cl,AC50,[1],"39.8 µM [falling, single point]"
CCOc1ccc(-c2nnc(Nc3ccc(S(N)(=O)=O)cc3)c3ccccc23)cc1,AC50,[2],"31.6 µM [rising, single point]"
same,AC50,[3],"0.501 µM [rising, partial curve, poor fit]"
CC(C)(C)c1ccc(OCC(=O)N2CCC(c3nc4ccccc4s3)CC2)cc1,AC50,[1],"5.01 µM [falling, full curve]"
Cc1nc2cccnc2n1-c1cccc(C(=O)N2CCN(c3ccc(Cl)cc3)CC2)c1,AC50,[1],"15.8 µM [falling, partial curve]"
COc1cc(CN2CCN(c3cccc(C)c3C)CC2)cc(Br)c1O,AC50,[1],"12.6 µM [falling, partial curve]"
CCN(CCCNC(=O)Cn1ncc2c([nH]c3ccc(C)cc32)c1=O)c1cccc(C)c1,AC50,[1],"1 µM [falling, full curve, poor fit]"
CCC(CC)c1nnc(NS(=O)(=O)Cc2ccccc2)s1,AC50,[1],"2 µM [falling, full curve]"
CC1CCCCN1C(=O)CSCC(=O)Nc1nc(-c2cccs2)cs1 (configuration not stated),AC50,[1],"10 µM [falling, partial curve]"
Cc1cccc(CCNC(=O)c2sc3nc4n(c(=O)c3c2C)CCCC4)c1,AC50,[1],"25.1 µM [falling, partial curve]"
Cc1ccc(S(=O)(=O)c2nc(-c3ccccc3)oc2NCc2cccnc2)cc1,AC50,[1],"25.1 µM [falling, partial curve]"
O=C1CSC2(C(=O)N(Cc3ccccc3F)c3ccccc32)N1c1ccc(F)cc1 (configuration not stated),AC50,[1],"15.8 µM [falling, partial curve]"
CCCC(=O)c1cc(F)c(N2CCOCC2)cc1C,AC50,[2],"6.31 µM [rising, single point]"
same,AC50,[3],"6.31 µM [rising, single point]"
O=C(NCCc1ccccc1)c1ccc(CS(=O)(=O)c2ccc(Br)cc2)o1,AC50,[1],"25.1 µM [falling, single point]"
Cc1cc2nn(-c3ccccc3)nc2cc1NC(=O)c1cccc2c(Cl)cccc12,AC50,[1],"0.251 µM [rising, full curve]"
COc1ccc(CCC(=O)N2CCc3c([nH]c4ccccc34)C2c2ccc(F)cc2)cc1 (configuration not stated),AC50,[1],"7.94 µM [falling, full curve]"
CCSc1nnc2n(-c3cccc(C)c3)c(=O)c3c4c(sc3n12)CCCC4,AC50,[1],"25.1 µM [falling, single point]"
COc1ccc(-c2cc(C(=O)Nc3cccnc3Cl)no2)cc1OC,AC50,[1],"2.51 µM [rising, full curve]"
O=C(NCCc1ccc2c(c1)OCCO2)c1cc2ccccc2o1,AC50,[1],"12.6 µM [falling, partial curve]"
Cc1ccccc1C(=O)OCc1cc(=O)n2nc(-c3cccs3)sc2n1,AC50,[1],"1.58 µM [rising, partial curve]"
Clc1ccc(-n2nnnc2Sc2ncnc3sccc23)cc1,AC50,[1],"10 µM [falling, partial curve]"
CN(C)CCN(Cc1ccco1)C(=O)c1oc2ccccc2c1NC(=O)c1ccccc1,AC50,[1],"31.6 µM [falling, single point]"
Cc1ccc(OCC(=O)N(Cc2ccco2)Cc2ccc(C)o2)cc1,AC50,[1],"39.8 µM [falling, single point]"
Cc1ccc2cc(C#N)c(NCc3ccco3)nc2c1,AC50,[1],"15.8 µM [rising, partial curve] [measured here: IkB-luc green channel]"
CCc1ccccc1N(CC)C(=O)CCc1nc(-c2ccc(C)cc2)no1,AC50,[1],"20 µM [falling, partial curve]"
Cc1ccc(C(=O)C2CCN(CC(=O)NC3CCCCC3)CC2)cc1,AC50,[1],"25.1 µM [falling, partial curve]"
COc1ccc(NC(=O)c2cc(-c3ccc(OC)c(OC)c3)on2)cc1OC,AC50,[1],"6.31 µM [falling, partial curve]"
NCCCCCCCCCCNS(=O)(=O)c1cccc2c(Cl)cccc12,AC50,[1],"31.6 µM [falling, partial curve]"
Cc1cc(S(=O)(=O)Nc2ccc(-c3ccc(N4CCCCCC4)nn3)cc2)c(C)cc1Cl,AC50,[1],"6.31 µM [falling, full curve]"
CCc1sc(Nc2cccc(C)c2C)nc1-c1cc2cccc(OC)c2oc1=O,AC50,[1],"0.251 µM [falling, full curve]"
Cc1ccc2c(=O)c(C(=O)c3cccc(Cl)c3)cn(CC(=O)Nc3ccc4c(c3)OCCO4)c2n1,AC50,[1],"12.6 µM [falling, partial curve]"
COc1ccc(-n2nnnc2S(=O)(=O)CC(=O)N2CCCCC2)cc1,AC50,[2],"3.16 µM [falling, full curve]"
same,AC50,[3],"1 µM [falling, full curve]"
CC(C)OC(=O)CSc1ncnc2c1cnn2-c1ccccc1,AC50,[1],"39.8 µM [falling, single point]"
COc1ccc(CCCc2nnc(SCC(=O)Nc3ccc(OC)cc3)o2)cc1,AC50,[1],"25.1 µM [falling, single point]"
CN1C(=O)Cc2cc(S(=O)(=O)CCC(=O)Nc3ccc(F)c(Cl)c3)ccc21,AC50,[1],"39.8 µM [falling, single point]"
CCc1ccccc1Nc1cc(C(=O)NC(C)c2ccccc2)c2ccccc2n1 (configuration not stated),AC50,[1],"5.01 µM [falling, partial curve]"
CCCc1nn2c(=O)cc(COC(=O)c3ccccc3NC(=O)c3ccc(Cl)cc3)nc2s1,AC50,[1],"0.501 µM [falling, partial curve]"
CCOc1ccc(NC(=O)CN2CCCN(Cc3cc(C)ccc3C)S2(=O)=O)cc1,AC50,[1],"15.8 µM [falling, partial curve]"
Cn1c(-c2ccc(F)cc2)cnc1NCc1ccccc1,AC50,[1],"15.8 µM [falling, partial curve]"
COc1ccc(Cl)cc1-n1nnc(-c2nsc(NC(=O)c3ccccc3Cl)n2)c1C,AC50,[1],"39.8 µM [falling, single point]"
COc1ccc(C2(CNC(=O)C(=O)Nc3ccc(F)cc3)CCCC2)cc1OC,AC50,[1],"1.58 µM [falling, full curve]"
Cc1ccc(NS(=O)(=O)c2ccc3c(c2)CCCN3C(=O)C2CCC2)c(C)c1,AC50,[1],"31.6 µM [falling, partial curve, poor fit]"
O=C(/C=C/N1CCOCC1)c1ccc(-c2ccccc2)cc1,AC50,[1],"10 µM [falling, partial curve]"
COc1ccc2[nH]c3c(c2c1)CN(C)CC3,AC50,[1],"25.1 µM [falling, partial curve]"
CS(=O)(=O)N(Cc1ccco1)CC(O)Cn1c2ccccc2c2ccccc21 (configuration not stated),AC50,[1],"12.6 µM [falling, partial curve]"
CCN(CC)C(=O)Cn1cc(SCC(=O)Nc2ccccc2C)c2ccccc21,AC50,[1],"39.8 µM [falling, single point]"
Cc1cccc(-c2nc(SCCCOc3ccc(Cl)c(C)c3)n3[nH]c(=O)cc3n2)c1,AC50,[1],"3.98 µM [rising, full curve]"
CCOc1ccc(NC(=O)c2ccccc2O)cc1,AC50,[1],"5.01 µM [falling, partial curve]"
CCc1c(C)nc2ncnn2c1N1CCC(C(=O)N2CCN(c3ccc(F)cc3)CC2)CC1,AC50,[1],"20 µM [falling, partial curve]"

# Laid out differently: results already given
smiles | measurement | setting | value
Cc1ccc2c(=O)c(C(=O)c3cccc(Cl)c3)cn(CC(=O)Nc3ccc4c(c3)OCCO4)c2n1 | AC50 | [1] | 12.6 µM [falling, partial curve]
COc1ccc(-n2nnnc2S(=O)(=O)CC(=O)N2CCCCC2)cc1 | AC50 | [2] | 3.16 µM [falling, full curve]
